According to PubChem BioAssay AID504444 (National Center for Advancing Translational Sciences (NCATS), 2011):
About 7,500 (2.1%) of roughly 360,000 compounds were called active. Inconclusive results, whose numbers are uncertain, are shown with a selection of clear calls. Calls follow the shape of the dose curve; as a rule, active = well fitted inhibition curve with a large enough effect; inconclusive = small, poorly fitted or top-dose-only effect, or effect the other way; inactive = flat fitted curve, though single readings scatter. Potencies of inconclusive entries are doubtful fits and often do not repeat.

Assay: Nrf2 qHTS screen for inhibitors; also: nearly all actives have a fitted effect of over 60% in size
Settings: A549 ARE-Fluc reporter, luciferase luminescence, 18-24 h; activity change, negative = inhibition: at 46 µM (top of the series)
In short: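 Nrf2 activity is the BugLite luminescence, read 15 min after reagent at room temperature, following CellTiter-Fluor cytotoxicity readout (30 min, 37C). Compound titrations were applied for 18-24 h to 5000 A549 ARE_Fluc cells/well in 5% FBS OPTI-MEM.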
% is scaled to controls: 0 for no effect and ±100 for the full control effect; potency is read from the fitted curve at half-maximal effect.

SMILES | activity change, negative = inhibition | Potency
CCOCCCn1c(=S)[nH]c2cc(C(=O)NCCCN(CC)CC)ccc2c1=O | inactive: -1.89% | 
CC(C(=O)NCc1ccco1)n1ccc2cc(S(=O)(=O)N3CCCCC3)ccc21 (stereo not drawn) |  | inconclusive: 29.1 µM [falling, single point]
COc1cc(C(=O)Nc2ccc(NC(=O)c3cccc(Cl)c3)nc2)cc(OC)c1OC |  | inconclusive: 4.61 µM [falling, partial curve]
COc1cc(CNC2CCCCC2OC)cc(OC)c1 (stereo not drawn) | inactive: 3.35% | 
COc1ccc(C(=O)Nc2ccccc2NC(=O)c2ccco2)cc1OC |  | inconclusive: 29.1 µM [falling, single point]
CCOc1ccc(-c2nc(N)ncc2Oc2cccc(OC)c2)c(O)c1 |  | inconclusive: 29.1 µM [falling, single point]
Cc1ccc(S(=O)(=O)c2c(O)cc(C)c(NS(=O)(=O)c3ccc(Cl)cc3)c2C)cc1 |  | inconclusive: 14.6 µM [falling, partial curve, poor fit]
COc1ccccc1N1CCN(S(=O)(=O)c2c(C)nc3sccn3c2=O)CC1 | inactive: 12.6% | 
Cc1occc1C(=O)NCc1ccc2c(c1)OCO2 | inactive: -2.55% | 
COc1cccc(-c2nnc3sc(-c4cccs4)nn23)c1 |  | inconclusive: 1.3 µM [activator, partial curve, poor fit]
Cc1sc2ncnc(N/N=C/c3ccccc3O)c2c1C |  | inconclusive: 20.6 µM [falling, single point]
COc1ccccc1/C=C/C(=O)N1CCC(c2ccccc2)C1 (stereo not drawn) |  | inconclusive: 10.3 µM [activator, partial curve, poor fit]
COc1cc(C)nc(NCc2ccccc2)n1 | inactive: 16.7% | 
Cn1c(SCC(=O)NCc2ccccc2)nc2ccccc21 |  | inconclusive: 1.64 µM [falling, full curve, poor fit]
Cc1ccc(-n2ncc3c(NCc4ccccc4)ncnc32)cc1 |  | inconclusive: 3.26 µM [activator, single point]
CC(=O)CCC1C2C(O)C(C(C)C)C(OC(=O)/C=C/c3ccccc3)CC12C (stereo not drawn) |  | inconclusive: 29.1 µM [falling, single point]
O=C(NCCSc1ccccc1)c1cccnc1 |  | inconclusive: 25.9 µM [activator, single point]
COc1ccc(C(=O)CC(=O)c2ccccc2O)cc1OC |  | inconclusive: 29.1 µM [activator, single point]
CCCOc1ccc(CNC(=S)Nc2ccccc2)cc1Cl |  | inconclusive: 18.4 µM [falling, single point]
Cn1nc(C(C)(C)C)c([N+](=O)[O-])c1C(=O)NCCO | inactive: 10.6% | 
Cc1cccc(NC(=O)CSCC(=O)N(C)Cc2c(F)cccc2Cl)c1 |  | inconclusive: 16.4 µM [falling, single point]
Cc1cc(C)c2nc(Cl)c(CN(Cc3ccco3)C(=O)Nc3ccccc3C)cc2c1 |  | inconclusive: 1.3 µM [falling, full curve, poor fit]

SMILES | activity change, negative = inhibition | Potency
COC(=O)c1ccc2nc(-c3ccc(S(C)(=O)=O)cc3)cn2c1 |  | inconclusive: 11.6 µM [activator, partial curve]
O=C(c1cccc(S(=O)(=O)N2CCCCCC2)c1)N1CCN(c2ccccc2)CC1 |  | inconclusive: 20.6 µM [falling, single point]
CCOC(=O)c1c(-c2ccc(C)cc2)csc1NC(=O)CCN1CC(C)OC(C)C1 (stereo not drawn) | inactive: -23.2% | 
Fc1ccc(C2=Nn3c(nnc3-c3n[nH]c4c3CCC4)SC2)cc1 |  | inconclusive: 14.6 µM [falling, single point]
CC(C)(C)NC(=O)COC(=O)c1ccccc1Nc1ccc(SC(F)F)cc1 |  | inconclusive: 2.91 µM [activator, full curve]
Cn1nc(-c2ccccc2F)c2cc(C(=O)Nc3ccc4c(c3)OCCO4)sc21 |  | active: 14.6 µM
Cc1ccc(S(=O)(=O)N/N=C\c2ccc3c(c2)OCO3)cc1C |  | inconclusive: 23.1 µM [falling, single point]
O=[N+]([O-])c1ccc(N=Nc2c(Cl)cc(O)cc2Cl)cc1 | inactive: -12.2% | 
CSc1cccc(NC(=S)N2CCCN(Cc3cccc(Cl)c3)C2)c1 |  | inconclusive: 29.1 µM [activator, single point]
Cc1nc([N+](=O)[O-])c(Sc2nc3ccccc3[nH]2)n1Cc1ccccc1 |  | inconclusive: 23.1 µM [falling, partial curve, poor fit]
Cc1ccc(OCC(=O)N2CCCc3ccccc32)cc1 |  | inconclusive: 29.1 µM [activator, single point]
COc1cc(SC)ccc1C(=O)NCCc1ccccc1 |  | inconclusive: 7.31 µM [activator, partial curve]
Cc1nn2c(C)c(C(=O)NC(C)(C)C)cnc2c1-c1ccc(F)cc1 |  | inconclusive: 23.1 µM [activator, single point]
COc1cc2[nH]c(=O)n(CCC(=O)N3CCN(c4cccc(C)c4C)CC3)c(=O)c2cc1OC |  | inconclusive: 9.2 µM [falling, partial curve, poor fit]
O=C(CCc1nc2ccccc2c(=O)[nH]1)NCCN1C(=O)S/C(=C\c2ccc(Cl)cc2Cl)C1=O |  | inconclusive: 29.1 µM [falling, single point]
CC(C)Oc1cccc(C(=O)C2CCCN(Cc3ccc4nonc4c3)C2)c1 (stereo not drawn) |  | inconclusive: 16.4 µM [falling, single point]
CCN(CC(=O)NCc1ccc(Cl)cc1)C(=O)c1ccc(S(=O)(=O)N(C)C)cc1 |  | inconclusive: 16.4 µM [activator, single point]
COc1ccc(Cl)cc1C(Nc1cccnc1)c1ccc2cccnc2c1O (stereo not drawn) |  | inconclusive: 29.1 µM [falling, single point]
O=C(Cc1ccccc1F)Nc1nc2ccccc2[nH]1 |  | inconclusive: 0.184 µM [activator, partial curve, poor fit]
OCc1ccc(N=Nc2ccccc2)cc1 |  | inconclusive: 9.2 µM [activator, partial curve]
COc1ccc(C(=O)NCCNc2nc3c(C)cccc3cc2C#N)cc1 |  | inconclusive: 14.6 µM [falling, partial curve, poor fit]

Given in markdown: part of the list above

| SMILES | activity change, negative = inhibition | Potency |
| --- | --- | --- |
| O=C(c1cccc(S(=O)(=O)N2CCCCCC2)c1)N1CCN(c2ccccc2)CC1 |  | inconclusive: 20.6 µM [falling, single point] |
| CCOC(=O)c1c(-c2ccc(C)cc2)csc1NC(=O)CCN1CC(C)OC(C)C1 (stereo not drawn) | inactive: -23.2% |  |
| Fc1ccc(C2=Nn3c(nnc3-c3n[nH]c4c3CCC4)SC2)cc1 |  | inconclusive: 14.6 µM [falling, single point] |
| CC(C)(C)NC(=O)COC(=O)c1ccccc1Nc1ccc(SC(F)F)cc1 |  | inconclusive: 2.91 µM [activator, full curve] |
| Cc1nc([N+](=O)[O-])c(Sc2nc3ccccc3[nH]2)n1Cc1ccccc1 |  | inconclusive: 23.1 µM [falling, partial curve, poor fit] |
| Cc1ccc(OCC(=O)N2CCCc3ccccc32)cc1 |  | inconclusive: 29.1 µM [activator, single point] |
| COc1ccc(Cl)cc1C(Nc1cccnc1)c1ccc2cccnc2c1O (stereo not drawn) |  | inconclusive: 29.1 µM [falling, single point] |
| OCc1ccc(N=Nc2ccccc2)cc1 |  | inconclusive: 9.2 µM [activator, partial curve] |
